The list shows a part of the results. These are raw signals, not scaled to a control.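 First-pass screen: polymyxin B was added at a level that permeabilizes the Salmonella outer membrane while sparing the inner membrane. DMSO wells, with and without polymyxin B, defined maximum growth. Because plates differed from one another, each plate's data were ranked separately and the compounds with the lowest OD600 were carried forward as hits.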
Tested on: Salmonella enterica serovar Typhimurium SL1344
Assay: bacterial growth OD600 after 18 h with compound and polymyxin B; higher = more bacterial growth (less inhibition)
Settings: 50 µM, Mueller-Hinton broth

Structure (SMILES) | bacterial growth OD600 (polymyxin B 0.75 µg/mL) | bacterial growth OD600 (polymyxin B 1 µg/mL)
CCc1cc(C(=O)N2CCc3c(cnc(C)c3CNC(=O)c3ccccc3SC)C2)n(C)n1 | 0.875 | 
CCOC(=O)N1CCC(NC2CCN(c3cccc(NC(=O)CCCc4ccccc4)c3)CC2)CC1 | 0.743 | 
CCc1csc(CNC(=O)c2ccc(OCC3(C)CCCNC3)nc2)n1 (stereo unspecified) |  | 1.07
O=C(c1cn(CCN2CCCCC2)nn1)N1CCN(Cc2ccc3c(c2)OCO3)CC1 |  | 0.935
O=C(NCCc1ccccn1)C1(N2CCCCC2)Cc2ccccc2C1 |  | 0.781
Cn1ccnc1CNC(=O)c1cc(CN2CCC(Cc3ccccc3)CC2)on1 | 0.799 | 
CC(C)c1ccc(NC2CCCN(CC(C)(C)CO)C2)cc1 (stereo unspecified) |  | 1.06
Cc1ccc(CN2CCC(CN(C)Cc3cc(O)c4ccccc4n3)CC2)o1 |  | 0.82
CCC(C)CN1CCC(N2CCC(C(=O)NCc3cccnc3)CC2)CC1 (stereo unspecified) |  | 0.937
CCOc1ccc2nc(N3CCC(NCCc4ccccn4)CC3)nc(C)c2c1 | 0.012 | 
COCC1CCCN(C(=O)c2cc(COc3ccc(F)cc3F)on2)C1 (stereo unspecified) |  | 0.922
CC(=O)c1ccc(N2CCC(C3CCN(Cc4cccnc4)CC3)C2)nc1 (stereo unspecified) | 0.718 | 
Cc1cccc(C(=O)NCc2nc(-c3ccccc3NC(=O)CC3CCCC3)oc2C)n1 | 0.015 | 
COCCN(CC1CCN(Cc2ccccc2OC)CC1)C(=O)c1n[nH]c2c1CCC2 |  | 1.05
CN(C)c1ncccc1CNS(=O)(=O)N1CCOCC1 |  | 0.944
O=C1N(Cc2cccnc2)CCCC12CCN(Cc1cccc(F)c1F)C2 (stereo unspecified) |  | 0.928

Structure (SMILES) | bacterial growth OD600 (polymyxin B 0.75 µg/mL) | bacterial growth OD600 (polymyxin B 1 µg/mL)
O=C(Nc1cnn(-c2ccc(C(=O)N3CCN(c4nc5ccccc5s4)CC3)cc2)c1)c1ccoc1 | 0.947 | 
Cc1cccc(CNc2ccc(C(=O)NCCC3CCCCN3C)cn2)n1 (stereo unspecified) | 0.825 | 
COc1cccc(CCC2CCCN(C(=O)c3snnc3C)C2)c1 (stereo unspecified) | 0.723 | 
Cc1cnc(CNC(=O)c2cc(CN3CCC(Cc4ccccc4)CC3)on2)cn1 |  | 0.964
CCn1ccnc1CN(C)Cc1nc(-c2ccc(C(=O)OC)cc2)no1 |  | 0.807
C[C@@H]1CN(C(=O)c2nc3sccn3c2CN2CCC[C@H]2CO)C[C@H](C)O1 |  | 0.913
Cc1ccc(CN2C[C@H](O)[C@@H](N3CCOCC3)C2)cc1 |  | 0.796
O=C(C1=CCCC1)N1CCC2(CCCN(Cc3ccc(F)cc3)C2)C1 (stereo unspecified) |  | 0.905
C=CCNC(=O)C1CCCN1c1nc(C)c2cc(OCC)ccc2n1 (stereo unspecified) | 0.778 | 
CN(C)c1ncc2c(n1)CCCC2NCc1nc(-c2ccccc2)cs1 (stereo unspecified) | 0.725 | 
CCOC(=O)C1(Cc2ccc(F)cc2)CCCN(C(=O)c2cc(F)ccc2F)C1 (stereo unspecified) |  | 0.739
CCn1cc(CN2CCc3[nH]nc(-c4ccccc4F)c3C2)c(C)n1 | 0.826 | 
CN(CC1CCN(CCc2cccc(F)c2)CC1)C(=O)CCN1CCCO1 |  | 0.966
CCCCNC(=O)c1cn(C2CCCCC2)cc(C(=O)NCCc2ccncc2)c1=O | 0.831 | 
Fc1ccc(Cc2noc(-c3ccc(NCC4COCCO4)nc3)n2)cc1 (stereo unspecified) | 0.005 | 

Individual results from the list.
In bacterial growth OD600 (polymyxin B 0.75 µg/mL), Cc1cccc(CNc2ccc(C(=O)NCCC3CCCCN3C)cn2)n1 (stereo unspecified) is listed with 0.825
In bacterial growth OD600 (polymyxin B 1 µg/mL), O=C1N(Cc2cccnc2)CCCC12CCN(Cc1cccc(F)c1F)C2 (stereo unspecified) is listed with 0.928

Reference: the supplement of paper PMC12889115
